Measurements published in article PMC5150220.

B1: Ssb1 (wild type, recombinant) [S. cerevisiae] / IAANS-labelled peptide σ32-Q132-Q144-C [modified: IAANS (2-(4'-(iodoacetamido)anilino)naphthalene-6-sulfonic acid) label; IAANS (2-(4'-(iodoacetamido)anilino)naphtha … (parent)
chain 1: MAEGVFQGAIGIDLGTTYSCVATYESSVEIIANEQGNRVTPSFVAFTPEERLIGDAAKNQAALNPRNTVFDAKRLIGRRFDDESVQKDMKTWPFKVIDVDGNPVIEVQYLEETKTFSPQEISAMVLTKMKEIAEAKIGKKVEKAVITVPAYFNDAQRQATKDAGAISGLNVLRIINEPTAAAIAYGLGAGKSEKERHVLIFDLGGGTFDVSLLHIAGGVYTVKSTSGNTHLGGQDFDTNLLEHFKAEFKKKTGLDISDDARALRRLRTAAERAKRTLSSVTQTTVEVDSLFDGEDFESSLTRARFEDLNAALFKSTLEPVEQVLKDAKISKSQIDEVVLVGGSTRIPKVQKLLSDFFDGKQLEKSINPDEAVAYGAAVQGAILTGQSTSDETKDLLLLDVAPLSLGVGMQGDMFGIVVPRNTTVPTIKRRTFTTCADNQTTVQFPVYQGERVNCKENTLLGEFDLKNIPMMPAGEPVLEAIFEVDANGILKVTAVEKSTGKSSNITISNAVGRLSSEEIEKMVNQAEEFKAADEAFAKKHEARQRLESYVASIEQTVTDPVLSSKLKRGSKSKIEAALSDALAALQIEDPSADELRKAEVGLKRVVTKAMSSR
chain 2: QRKLFFNLRKTKQC

Assays:
[1] = variants of: B1; assay: fluorescence anisotropy (fluorescence polarization); conditions: with IAANS-labelled peptide σ32-Q132-Q144-C [modified: IAANS (2-(4'-(iodoacetamido)anilino)naphthalene-6-sulfonic acid) label, parent: 140, read off a plot
[2] = variants of: B1; assay: peptide release kinetics (IAANS-labelled peptide fluorescence); conditions: with IAANS-labelled peptide σ32-Q132-Q144-C [modified: IAANS (2-(4'-(iodoacetamido)anilino)naphthalene-6-sulfonic acid) label, parent: 0.003, read off a plot

Row | Variant | response [1] [mP] | koff [2] [s⁻¹]
1 | chain 1 K428A R429A R430A | 120 | 0.0017
2 | chain 1 K603A R604A K608A R613A | 120 | 0.0023
